Source: patent publication US20090068207A1, “Compositions Containing Beta 2-Glycoprotein I-Derived Peptides for the Prevention and/or Treatment of Vascular Disease” (Vascular Biogenics Ltd., priority 2005, published 2009)
Some entries share one result that the patent states for a list of compounds.

Tests used:
Assay type in all cases: in vivo
LDL-RD mice [1] = experiment: Aortic sinus lesion area after intraperitoneal immunization with incomplete Freund's adjuvant; conditions: 20 μg/dose
Method: Intraperitoneal immunization with human β2GPI-derived peptides: human β2GPI-derived peptides were dissolved in PBS and mixed with equal volumes of Freund's incomplete adjuvant. […] One week following the last immunization, the diet was switched from chow to atherogenic “Western” diet for five weeks, and then the mice were sacrificed.
Assessment of Atherosclerosis: Quantification of atherosclerotic fatty streak lesions was done by calculating the lesion size in the aortic sinus as previously described (16) and by calculating the lesion size in the aorta. Briefly, after perfusion with saline Tris EDTA, the heart and the aorta were removed from the animals and the peripheral fat cleaned carefully. The upper section of the heart was embedded in OCT medium (10.24% w/w polyvinyl alcohol; 4.26% w/w polyethylene glycol; 85.50% w/w nonreactive ingredients) and frozen. Every other section (10 μm thick) throughout the aortic sinus (400 μm) was taken for analysis. The distal portion of the aortic sinus was recognized by the three valve cusps that are the junctions of the aorta to the heart. […] Lesion areas per section were scored on a grid (17) by an observer counting unidentified, numbered specimens. The aorta was dissected from the heart and surrounding adventitious tissue was removed. Fixation of the aorta and Sudan staining of the vessels were performed as previously described (21).
Immunization with Human β2GPI-derived peptides mildly attenuates the early atherogenesis in LDL RD mice: In order to compare the effects of different modes of administration of human β2GPI-derived peptides on atherosclerosis, human β2GPI-derived peptides and human β2GPI were administered intraperitoneally (IP) with incomplete Freund's adjuvant, in LDL RD mice, effectively immunizing the mice, as opposed to the tolerance effected by mucosal administration.
Data presented in FIG. 11, and Table 7, clearly indicates a non-specific inhibitory effect of immunization (see PBS vs Non-immunized) on the size of the aortic sinus lesions in the susceptible LDL RD mice. On an average, immunization with the human β2GPI-derived peptides was equally, if not more, effective in inhibiting atherogenesis as immunization with human β2GPI, or with PBS prepared in incomplete Freund's adjuvant. In contrast to the protection achieved with mucosal administration, the different peptides S-1, S-2, S-3 and S-4 provided widely divergent, and diminished (34% or less) degrees of protection, as compared with controls.

LDL-RD mice [2] = experiment: Aortic sinus lesion area after oral administration, Western diet; conditions: oral 100 μg/dose, 5 doses, Western diet 5 weeks
Method: Oral Tolerance: For comparison, oral tolerance to plaque-associated molecules was induced by feeding […] of antigen every other day (for a detailed account of induction of oral tolerance, see U.S. patent application Ser. No. 09/806,400 to Shoenfeld et al filed Sep. 30, 1999), in a similar regimen to the nasal tolerance. LDL-RD mice were fed by a nasogastric tube, five doses (every other day) of human or bovine β2GPI in PBS in two different concentrations (500 and 50 μg/dose).
Oral tolerance to β2GPI-derived peptides, alone or in combination was induced by feeding 100 μg of the peptides (prepared in PBS, 0.2 ml), as detailed hereinabove, every other day for a total of 5 doses of 100 μg. One day following the last feeding, all mice were switched from chow-diet to an atherogenic “Western” diet and sacrificed five weeks later.
Assessment of Atherosclerosis: Quantification of atherosclerotic fatty streak lesions was done by calculating the lesion size in the aortic sinus as previously described (16) and by calculating the lesion size in the aorta. Briefly, after perfusion with saline Tris EDTA, the heart and the aorta were removed from the animals and the peripheral fat cleaned carefully. […] Lesion areas per section were scored on a grid (17) by an observer counting unidentified, numbered specimens. […]

lymph node cells = experiment: Lymph node cell proliferation (stimulation index) to oxLDL after oral administration; conditions: 3 doses of 100 μg, LDL-RD mice immunized with OxLDL
Method: Proliferation was measured by the incorporation of [^3H] thymidine into DNA during the final 12 h of incubation. The results were computed as stimulation index: the ratio of the mean cpm of the antigen to the mean background cpm obtained in the absence of the antigen.
[…] Three days after the final administration of peptides, the mice were immunized with OxLDL in incomplete Freund's adjuvant, as described in the Examples above, and lymph node cells assessed for antigen (OxLDL) stimulation of proliferation 10 days later. Proliferation was assessed by incorporation of thymidine, expressed as the Stimulation Index, as described.

| Sequence | degrees of protection as compared with controls (LDL-RD mice [1]) | reduction of atherosclerosis (aortic sinus lesion size) as compared with BSA- and PBS-fed controls (LDL-RD mice [2]) | reduction in Stimulation Index of OxLDL-sensitized lymph node cells (lymph node cells) |
| --- | --- | --- | --- |
| ECLPQHAMFGNDTITCTTHGN [Peptide S-2] | ≤ 34% | > 50% |  |
| MLHGDKVSFFCKNKEKKCSYT [Peptide S-4] | ≤ 34% | > 50% | > 90% |
| SCKVPVKKATVVYQGERVKIQ [Peptide S-3] | ≤ 34% |  | > 90% |
| VCPFAGILENGAVRYTTFEY [Peptide S-1] | ≤ 34% |  |  |
